From US20060035823A1 come the findings set out here.

Amino acid sequences for entries named in this document (tags omitted). A change or cut given only in a name is not applied to a line headed by its entry. Residues count along the entry.
UniProt P04386: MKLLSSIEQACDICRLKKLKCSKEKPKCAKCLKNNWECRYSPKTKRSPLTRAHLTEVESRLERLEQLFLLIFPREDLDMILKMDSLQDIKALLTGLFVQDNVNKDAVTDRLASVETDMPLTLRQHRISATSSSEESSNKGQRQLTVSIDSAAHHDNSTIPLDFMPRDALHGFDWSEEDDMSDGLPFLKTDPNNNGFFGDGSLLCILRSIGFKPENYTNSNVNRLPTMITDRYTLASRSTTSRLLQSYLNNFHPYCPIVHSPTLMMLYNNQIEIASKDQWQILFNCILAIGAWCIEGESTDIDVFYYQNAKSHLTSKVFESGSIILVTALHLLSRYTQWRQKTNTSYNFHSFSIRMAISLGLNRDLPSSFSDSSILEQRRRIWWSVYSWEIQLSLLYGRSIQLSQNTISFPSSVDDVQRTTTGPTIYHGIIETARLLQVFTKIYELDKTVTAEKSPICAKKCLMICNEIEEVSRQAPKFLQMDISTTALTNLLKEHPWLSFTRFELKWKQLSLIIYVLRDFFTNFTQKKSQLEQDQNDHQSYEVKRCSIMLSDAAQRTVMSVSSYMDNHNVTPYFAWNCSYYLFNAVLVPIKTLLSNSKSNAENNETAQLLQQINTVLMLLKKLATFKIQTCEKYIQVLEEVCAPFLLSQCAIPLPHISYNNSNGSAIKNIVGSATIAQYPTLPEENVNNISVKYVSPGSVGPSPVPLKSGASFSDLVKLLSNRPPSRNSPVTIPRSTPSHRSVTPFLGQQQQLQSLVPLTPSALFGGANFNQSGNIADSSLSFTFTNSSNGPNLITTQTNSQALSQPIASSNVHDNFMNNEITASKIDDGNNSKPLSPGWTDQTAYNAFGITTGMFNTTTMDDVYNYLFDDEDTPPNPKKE
UniProt Q13114: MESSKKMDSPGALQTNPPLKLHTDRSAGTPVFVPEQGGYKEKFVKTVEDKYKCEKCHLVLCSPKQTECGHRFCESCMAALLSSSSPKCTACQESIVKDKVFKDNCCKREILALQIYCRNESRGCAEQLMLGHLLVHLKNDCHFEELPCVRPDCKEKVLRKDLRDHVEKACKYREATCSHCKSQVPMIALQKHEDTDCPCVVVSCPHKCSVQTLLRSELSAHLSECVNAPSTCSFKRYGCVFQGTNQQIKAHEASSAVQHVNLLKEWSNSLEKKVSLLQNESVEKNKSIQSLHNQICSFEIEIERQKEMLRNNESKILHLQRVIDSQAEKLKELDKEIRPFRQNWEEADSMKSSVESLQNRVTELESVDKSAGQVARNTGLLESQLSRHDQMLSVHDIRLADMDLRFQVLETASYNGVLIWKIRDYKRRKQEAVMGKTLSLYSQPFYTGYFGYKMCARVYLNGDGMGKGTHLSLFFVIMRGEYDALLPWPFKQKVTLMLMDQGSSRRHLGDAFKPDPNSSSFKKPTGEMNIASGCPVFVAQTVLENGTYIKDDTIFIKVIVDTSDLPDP
UniProt P37198, residues 270-522: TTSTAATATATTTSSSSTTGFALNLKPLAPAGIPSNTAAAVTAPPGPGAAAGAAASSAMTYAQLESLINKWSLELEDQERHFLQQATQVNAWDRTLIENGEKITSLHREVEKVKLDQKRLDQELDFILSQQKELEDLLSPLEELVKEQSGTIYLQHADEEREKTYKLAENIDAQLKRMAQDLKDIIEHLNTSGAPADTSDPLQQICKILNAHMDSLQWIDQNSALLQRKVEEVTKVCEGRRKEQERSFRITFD

These are yes or no findings as the source states them, for the method shown. Some entries that bind do so weakly or less than the wild type.

The target in test [1] is T1, GAL4 DNA-binding domain (BD)/full-length TRAF-3 fusion construct (pGBT9/TRAF-3) (human) (UniProt P04386+Q13114). As to the kind of experiment: yeast two-hybrid.
For test [2], the target named is T1, GAL4 DNA-binding domain (BD)/full-length TRAF-3 fusion construct (pGBT9/TRAF-3) (human). As to the kind of experiment: yeast two-hybrid (β-gal, growth without His).
The target of test [3] is GAL4 AD fusion of p62 nucleoporin aa 336-522 (pACT/p62(336-522)) (Homo sapiens (Human)) (UniProt P37198). The test is described as follows: yeast two-hybrid.
Test [4] deals with T1, GAL4 DNA-binding domain (BD)/full-length TRAF-3 fusion construct (pGBT9/TRAF-3) (human). As to the kind of experiment: yeast two-hybrid library screen.

Turning to “GAL4 AD fusion of p62 nucleoporin aa 270-522 (pACT/p62(270-522)) (from UniProt P37198 270-522)”, the binding entry in test [1] and in test [2] was “binds” each time.
For the substance “GAL4 BD fusion of TRAF-3 aa 110-343 (Zn fingers and coiled-coil domain), in pGBT9 (from UniProt P04386 1-147; Q13114 110-343)”, in test [3], the binding result is listed as “binds”.
As to “GAL4 AD fusion of p62 nucleoporin aa 336-522 (pACT/p62(336-522)) (from UniProt P37198 336-522)”, in test [4], the binding entry is recorded as “binds”.
